Data from patent publication EP1905445A1, “TUMOR GROWTH INHIBITOR” (Protein Express Co., Ltd., priority 2005, dated 2008).
At least one peptide structure holds a part that was inferred or is arguable (an end, a ring closure or a residue). Residues, ends and D or L forms follow the SMILES beside them.

System: human hepatocellular carcinoma (HCC)
Test: tumor volume in nude mice implanted with human hepatocellular carcinoma
Assay type: in vivo, BALB/c nu/nu mice
Conditions: for suppression of tumor volume increase: in comparison with the saline-administered group, 12th to 21st day

**Q.** With CC[C@H](C)[C@H](N)C(=O)N[C@@H](Cc1ccccc1)C(=O)N[C@@H](CC(C)C)C(=O)N[C@@H](CCCCN)C(=O)N[C@@H](CCCNC(=N)N)C(=O)N[C@@H](CCSC)C(=O)N1CCC[C@H]1C(=O)N[C@@H](CO)C(=O)O [pf11-18 peptide, IFLKRMPS] (H-IFLKRMPS-OH) as the molecule, how does the average tumor volumes (1 mg/kg/day intraperitoneal, day 12) read?
**A.** Its average tumor volumes is 0.0 mm^3.

**Q.** What about the average tumor volumes (1 mg/kg/day intraperitoneal, day 13) of the same molecule?
**A.** Its average tumor volumes is 74.1 mm^3.

**Q.** What about the average tumor volumes (1 mg/kg/day intraperitoneal, day 14) of the same molecule?
**A.** Its average tumor volumes is 147.3 mm^3.

**Q.** And the average tumor volumes (1 mg/kg/day intraperitoneal, day 15)?
**A.** The average tumor volumes was 243.6 mm^3.

**Q.** What about the average tumor volumes (1 mg/kg/day intraperitoneal, day 16) of the same molecule?
**A.** The average tumor volumes was 461.1 mm^3.

**Q.** And the average tumor volumes (1 mg/kg/day intraperitoneal, day 17)?
**A.** The average tumor volumes was 567.1 mm^3.

**Q.** And the average tumor volumes (1 mg/kg/day intraperitoneal, day 18)?
**A.** The average tumor volumes was 783.5 mm^3.

**Q.** What about the average tumor volumes (1 mg/kg/day intraperitoneal, day 19) of the same molecule?
**A.** Its average tumor volumes is 778.8 mm^3.

**Q.** And the average tumor volumes (1 mg/kg/day intraperitoneal, day 20)?
**A.** Its average tumor volumes is 924.6 mm^3.

**Q.** What about the average tumor volumes (1 mg/kg/day intraperitoneal, day 21) of the same molecule?
**A.** Its average tumor volumes is 1141.2 mm^3.

**Q.** And the “suppression of tumor volume increase” value (1 mg/kg/day)?
**A.** Its value is “suppression of tumor volume increase was observed”.

**Q.** What about the “suppressive effect on tumor volume increase” value (10 mg/kg/day compared with the captopril-administered group at 10 mg/kg/day) of the same molecule?
**A.** The value was “higher suppressive effect on tumor volume increase”.

**Q.** And the “suppressive effect on tumor volume increase” value (10 mg/kg/day compared with the pf11-18 peptide-administered group at 1 mg/kg/day)?
**A.** The value was “higher suppressive effect on tumor volume increase”.

**Q.** What about the average tumor volumes (10 mg/kg/day intraperitoneal, day 12) of the same molecule?
**A.** The average tumor volumes was 0.0 mm^3.

**Q.** What about the average tumor volumes (10 mg/kg/day intraperitoneal, day 13) of the same molecule?
**A.** The average tumor volumes was 54.3 mm^3.

**Q.** And the average tumor volumes (10 mg/kg/day intraperitoneal, day 14)?
**A.** The average tumor volumes was 54.7 mm^3.

**Q.** What about the average tumor volumes (10 mg/kg/day intraperitoneal, day 15) of the same molecule?
**A.** Its average tumor volumes is 125.9 mm^3.

**Q.** What about the average tumor volumes (10 mg/kg/day intraperitoneal, day 16) of the same molecule?
**A.** Its average tumor volumes is 196.8 mm^3.

**Q.** What about the average tumor volumes (10 mg/kg/day intraperitoneal, day 17) of the same molecule?
**A.** The average tumor volumes was 368.6 mm^3.

**Q.** And the average tumor volumes (10 mg/kg/day intraperitoneal, day 18)?
**A.** Its average tumor volumes is 422.8 mm^3.

**Q.** What about the average tumor volumes (10 mg/kg/day intraperitoneal, day 19) of the same molecule?
**A.** Its average tumor volumes is 342.8 mm^3.

**Q.** What about the average tumor volumes (10 mg/kg/day intraperitoneal, day 20) of the same molecule?
**A.** The average tumor volumes was 420.4 mm^3.

**Q.** And the average tumor volumes (10 mg/kg/day intraperitoneal, day 21)?
**A.** The average tumor volumes was 669.0 mm^3.

**Q.** And the “suppression of tumor volume increase” value (10 mg/kg/day)?
**A.** Its value is “suppression of tumor volume increase was observed”.
